Measurements reported in PubChem BioAssay AID743454 (Peter MacCallum Cancer Centre, 2014).

Aim: 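Genes whose loss kills vorinostat-resistant colon cancer cells under vorinostat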 (primary screen)
Cell system: human HCT116-VR colon cancer cells, selected for vorinostat resistance
Reagent: siRNA pool against human genes, 40 nM siRNA pool
Timing: vorinostat for 24 h, read-out about 72 h after transfection
Conditions: vorinostat at 2.5 µM final
Detection: 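Cell viability by CellTiter-Fluor and caspase 3/7 activity by luminescence, each scaled to mock wells per plate, duplicates averaged, then robust z-scored over all plates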
Direction: viability robust z-score: higher = more viable cells than screen typical; caspase robust z-score: higher = more caspase 3/7 activity than screen typical
Active means: 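Hits are knock-downs in viability class RV1/RV2 or caspase class CA1/CA2, excluding ones that killed cells in the no-drug cell-count arm; hits then retested with single siRNAs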
Here is one part, drawn at random, of about 18,000 reagents tested. 450 of them (2.5%) count as active. 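Single biological run; no consistent viability z cut-off exists, so the class columns, not z-scores, define the calls.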 The numbers tell different reagents against one gene apart.

no.	gene symbol	pool no.	viability hit class	caspase hit class	viability robust z-score	caspase robust z-score	outcome
1	ATRX (GeneID 546)	1	no change	no change	1.73	-0.55	inactive
2	ATXN3 (GeneID 4287)	1	no change	no change	0.38	0.11	inactive
3	RFESD (GeneID 317671)	1	no change	no change	1.44	0.32	inactive
4	ANXA5 (GeneID 308)	1	no change	no change	1.12	-0.23	inactive
5	TCEAL5 (GeneID 340543)	1	no change	no change	-0.4	0.16	inactive
6	TPR (GeneID 7175)	1	no change	no change	-0.1	3.14	inactive
7	LMOD1 (GeneID 25802)	1	no change	no change	-0.06	-0.64	inactive
8	TPP2 (GeneID 7174)	1	no change	no change	-0.15	-0.9	inactive
9	RNF25 (GeneID 64320)	1	no change	no change	-0.14	2	inactive
10	ASCL4 (GeneID 121549)	1	no change	no change	-0.94	0.26	inactive
11	AFF1 (GeneID 4299)	1	no change	no change	0.32	1.43	inactive
12	OR10A5 (GeneID 144124)	1	no change	no change	-1.85	-0.84	inactive
13	RBCK1 (GeneID 10616)	1	no change	no change	0.14	0.63	inactive
14	KSR2 (GeneID 283455)	1	no change	no change	-0.6	-0.18	inactive
15	FMC1 (GeneID 154791)	1	no change	CA2 (caspase activation)	-2.5	5.46	active
16	ACSM6 (GeneID 142827)	1	no change	no change	-0.14	-0.86	inactive
17	UCP2 (GeneID 7351)	1	no change	no change	-0.15	-0.35	inactive
18	GPR148 (GeneID 344561)	1	no change	no change	-1.1	0.04	inactive
19	ID1 (GeneID 3397)	1	no change	no change	-1.34	-0.6	inactive
20	TLK2 (GeneID 11011)	1	no change	no change	0.61	2.38	inactive
21	OR4F3 (GeneID 26683)	1	no change	no change	0.3	-0.28	inactive
22	AGBL1 (GeneID 123624)	1	no change	no change	-0.52	0.31	inactive
23	PSMD14 (GeneID 10213)	1	no change	no change	-3.87	2.03	inactive
24	KRT20 (GeneID 54474)	1	no change	no change	1	1.15	inactive
25	LMNA (GeneID 4000)	1	no change	no change	-0.58	1.9	inactive
26	MSI1 (GeneID 4440)	1	no change	no change	-0.54	0.9	inactive
27	SDF2 (GeneID 6388)	1	no change	no change	-0.27	-0.12	inactive
28	CNTNAP2 (GeneID 26047)	1	no change	no change	0.24	-0.03	inactive
29	LIN37 (GeneID 55957)	1	no change	no change	-0.26	1.91	inactive
30	CMTM4 (GeneID 146223)	1	no change	no change	0.48	-1.46	inactive
31	ZNF530 (GeneID 348327)	1	no change	no change	1.19	-0.82	inactive
32	TJP1 (GeneID 7082)	1	no change	no change	1.25	0.49	inactive
33	CERS4 (GeneID 79603)	1	no change	no change	-0.24	0.65	inactive
34	NCMAP (GeneID 400746)	1	no change	no change	-0.06	-0.83	inactive
35	GIT1 (GeneID 28964)	1	no change	no change	0.38	1.37	inactive
36	LCOR (GeneID 84458)	1	no change	no change	1.03	-0.26	inactive
37	LCOR (GeneID 84458)	2	no change	no change	1.52	0.26	inactive
38	SPATA17 (GeneID 128153)	1	no change	no change	1.84	0.25	inactive
39	OR51G1 (GeneID 79324)	1	no change	no change	-0.39	0.36	inactive
